Test results taken from article PMC6606597.
Results are given in words; binding and its absence hold for the method and conditions named. In cells and extracts the contact can be indirect. Some results given as binding are weak or reduced against the parent protein; the word gives no strength.

By UniProt entry, the sequences of proteins in these tests, tags left out.
UniProt Q9WVL2: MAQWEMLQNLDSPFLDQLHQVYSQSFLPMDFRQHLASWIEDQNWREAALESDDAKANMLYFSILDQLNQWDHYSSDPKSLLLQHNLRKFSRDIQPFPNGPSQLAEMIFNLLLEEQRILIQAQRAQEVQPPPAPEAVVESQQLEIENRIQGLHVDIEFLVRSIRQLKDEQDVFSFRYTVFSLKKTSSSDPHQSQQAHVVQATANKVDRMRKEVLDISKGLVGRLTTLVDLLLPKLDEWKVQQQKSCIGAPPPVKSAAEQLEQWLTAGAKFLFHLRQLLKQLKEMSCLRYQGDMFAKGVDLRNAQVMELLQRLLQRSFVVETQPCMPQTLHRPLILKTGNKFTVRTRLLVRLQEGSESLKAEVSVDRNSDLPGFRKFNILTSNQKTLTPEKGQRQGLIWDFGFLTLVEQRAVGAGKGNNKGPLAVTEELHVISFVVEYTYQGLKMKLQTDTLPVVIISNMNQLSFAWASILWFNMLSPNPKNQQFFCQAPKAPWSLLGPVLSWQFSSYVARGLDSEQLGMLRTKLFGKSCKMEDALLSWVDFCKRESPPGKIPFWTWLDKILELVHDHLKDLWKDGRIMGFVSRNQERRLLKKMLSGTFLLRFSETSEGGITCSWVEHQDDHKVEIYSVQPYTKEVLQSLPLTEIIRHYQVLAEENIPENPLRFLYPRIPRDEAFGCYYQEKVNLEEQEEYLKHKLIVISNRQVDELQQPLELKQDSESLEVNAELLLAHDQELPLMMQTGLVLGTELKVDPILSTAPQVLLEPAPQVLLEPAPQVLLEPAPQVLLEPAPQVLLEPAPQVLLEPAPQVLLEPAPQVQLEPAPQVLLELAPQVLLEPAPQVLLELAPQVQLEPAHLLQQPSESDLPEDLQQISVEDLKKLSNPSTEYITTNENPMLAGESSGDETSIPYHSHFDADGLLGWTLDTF

Molecular target: STAT2 (signal transducer and activator of transcription 2), endogenous (mouse (endogenous in BMDM and Raw 264.7)) (UniProt Q9WVL2)
Assay: co-IP; endogenous proteins of mouse BMDM, resting or treated 1.5 h with IFN-β; lysis in 10 mM Tris-HCl pH 7.5, 50 mM NaCl, 1% Triton X-100; IP with antibodies to STAT1, STAT2, IRF9 or IgG control, protein G beads, western blot

binding: binds
B1: interferon regulatory factor 9 (IRF9), endogenous (protein, UniProt Q61179 1-399)
chain: MASGKVRCTRKLRSWIVEQVESGHFPGVCWDDAAKTMFRIPWKHAGKQDFREDQDAAIFKAWALFKEKHKDGDIGHPAVWKTRLRCALNKSSEFEEVPERGRMDVAEPYKVYRILPAGTLPNQPRNQKSPCKRSISCVSPEREENMENGRTNGVVNHSDSGSNIGGGGNGSNRSDSNSNCNSELEEGAGTTEATIREDPVFLEHQLPLNSDYSLLLTFIYGGRVVGKTQVHSLDCRLVAERSDSESSMEQVEFPKPDPLEPTQHLLNQLDRGVLVASNSRGLFVQRLCPIPISWNAPEAPPGPGPHLLPSNKCVELFKTTYFCRDLAQYFQGQGPPPKFQATLHFWEESPGSSHSQENLITVQMEQAFARHLLEKIPEEEKAALFLLQHTEQSPSALGH
